System: Escherichia coli (E. coli) persister cells
Test: Anti-persister activity test, persister cells
Type: cell-based
Conditions: survival rates 96 h
Procedure: Anti-persister activity test: Escherichia coli (E. coli) persister cells were generated and isolated as described by MARQUES, C. N. H. et al. (Applied and Environmental Microbiology 2014, Vol. 80, No. 22, pp. 6976-6991). E. coli persister cells were compared to E. coli non-persister cells. 1 mL persister or non-persister bacteria culture was added in a 1.5 mL microtube with each of the compounds to be tested or ciprofloxacin as a […], and incubated at 37° C. with 160 rpm shaking for 4 hours. After 4 hours treatment with the compounds, the microtubes were centrifuged at 3,500g for 5 minutes and the pellets were resuspended in 1 mL of fresh drug free RM broth (10 g/L M9 salt, 2% casamino acids, 1 mM MgCl2, 1% glycerol). Resuspended bacteria were then plated over LB agar plates and incubated at 37° C. Bacterial colonies were enumerated after 24, 48 and 96 hours to estimate the survival rate.

O=C(O)c1cn(C2CC2)c2cc(N3CCNCC3)c(F)cc2c1=O [Ciprofloxacin, ciprofloxacin, reference compound]
Ratio (Persisters/Non-persisters) (concentration used 200 μM): 1617.7

COC(=O)[C@@H](Cc1ccccc1)NC(=O)CC[C@@H](C)[C@H]1CCC2C3C(CC[C@@]21C)[C@@]1(C)CC[C@H](NCCNCCNCCN)C[C@H]1C[C@H]3O (stereo partly drawn) [Compound S010, methyl ((4R)-4-((3S,5S,7R,10S,13R,17R)-3-((2-((2-((2-aminoethyl)amino)ethyl)amino)ethyl)amino)-7-hydroxy-10,13-dimethylhexadecahydro-1H-cyclopenta[a]phenanthren-17-yl)pentanoyl)-D-phenylalaninate]
Ratio (Persisters/Non-persisters) (concentration used 250 μM): 0.2

COC(=O)[C@@H](NC(=O)CC[C@@H](C)[C@H]1CCC2C3C(CC[C@@]21C)[C@@]1(C)CC[C@H](NCCCNCCNCCCN)C[C@H]1C[C@H]3O)C(C)C (stereo partly drawn) [Compound S013, methyl ((4R)-4-((3S,5S,7R,10S,13R,17R)-3-((3-((2-((3-aminopropyl)amino)ethyl)amino)propyl)amino)-7-hydroxy-10,13-dimethylhexadecahydro-1H-cyclopenta[a]phenanthren-17-yl)pentanoyl)-L-valinate]
Ratio (Persisters/Non-persisters) (concentration used 250 μM): 0.0

COC(=O)[C@H](Cc1ccccc1)NC(=O)CC[C@@H](C)[C@H]1CCC2C3C(CC[C@@]21C)[C@@]1(C)CC[C@H](NCCCNCCCCNCCCN)C[C@H]1C[C@H]3O (stereo partly drawn) [Compound S014, methyl ((4R)-4-((3S,5S,7R,10S,13R,17R)-3-((3-((4-((3-aminopropyl)amino)butyl)amino)propyl)amino)-7-hydroxy-10,13-dimethylhexadecahydro-1H-cyclopenta[a]phenanthren-17-yl)pentanoyl)-L-phenylalaninate]
Ratio (Persisters/Non-persisters) (concentration used 125 μM): 0.0

COC(=O)[C@H](Cc1ccc(O)cc1)NC(=O)CC[C@@H](C)[C@H]1CCC2C3C(CC[C@@]21C)[C@@]1(C)CC[C@H](NCCCNCCCCNCCCN)C[C@H]1C[C@H]3O (stereo partly drawn) [Compound S039, methyl ((4R)-4-((3S,5S,7R,10S,13R,17R)-3-((3-((4-((3-aminopropyl)amino)butyl)amino)propyl)amino)-7-hydroxy-10,13-dimethylhexadecahydro-1H-cyclopenta[a]phenanthren-17-yl)pentanoyl)-L-tyrosinate]
Ratio (Persisters/Non-persisters) (concentration used 62.5 μM): 0.0

CC[C@H](C)[C@H](NC(=O)CC[C@@H](C)[C@H]1CC[C@H]2[C@@H]3[C@H](O)C[C@@H]4C[C@@H](NCCCNCCNCCCN)CC[C@]4(C)[C@H]3CC[C@]12C)C(=O)OC [Compound S041, methyl (2S,3S)-2-((4R)-4-((3S,5S,7R,10S,13R,17R)-3-((3-((2-((3-aminopropyl)amino)ethyl)amino)propyl)amino)-7-hydroxy-10,13-dimethylhexadecahydro-1H-cyclopenta[a]phenanthren-17-yl)pentanamido)-3-methylpentanoate]
Ratio (Persisters/Non-persisters) (concentration used 125 μM): 4.7

COC(=O)[C@H](Cc1ccc(O)cc1)NC(=O)CC[C@@H](C)[C@H]1CCC2C3C(CC[C@@]21C)[C@@]1(C)CC[C@H](NCCCNCCNCCCN)C[C@H]1C[C@H]3O (stereo partly drawn) [Compound S042, methyl ((4R)-4-((3S,5S,7R,10S,13R,17R)-3-((3-((2-((3-aminopropyl)amino)ethyl)amino)propyl)amino)-7-hydroxy-10,13-dimethylhexadecahydro-1H-cyclopenta[a]phenanthren-17-yl)pentanoyl)-L-tyrosinate]
Ratio (Persisters/Non-persisters) (concentration used 125 μM): 312.2

CC[C@@H](C)[C@H](NC(=O)CC[C@@H](C)[C@H]1CC[C@H]2[C@@H]3[C@H](O)C[C@@H]4C[C@@H](NCCCNCCCCNCCCN)CC[C@]4(C)[C@H]3CC[C@]12C)C(=O)OC [Compound S044, methyl (2S,3R)-2-((4R)-4-((3S,5S,7R,10S,13R,17R)-3-((3-((4-((3-aminopropyl)amino)butyl)amino)propyl)amino)-7-hydroxy-10,13-dimethylhexadecahydro-1H-cyclopenta[a]phenanthren-17-yl)pentanamido)-3-methylpentanoate]
Ratio (Persisters/Non-persisters) (concentration used 62.5 μM): 0.0

COC(=O)[C@H]1CCCN1C(=O)CC[C@@H](C)[C@H]1CCC2C3C(CC[C@@]21C)[C@@]1(C)CC[C@H](NCCCNCCNCCCN)C[C@H]1C[C@H]3O (stereo partly drawn) [Compound S046, methyl ((4R)-4-((3S,5S,7R,10S,13R,17R)-3-((3-((2-((3-aminopropyl)amino)ethyl)amino)propyl)amino)-7-hydroxy-10,13-dimethylhexadecahydro-1H-cyclopenta[a]phenanthren-17-yl)pentanoyl)-D-prolinate]
Ratio (Persisters/Non-persisters) (concentration used 125 μM): 0.0

COC(=O)[C@H](NC(=O)CC[C@@H](C)[C@H]1CCC2C3CC[C@@H]4C[C@@H](NCCCNCCCCNCCCN)CC[C@]4(C)C3C[C@H](O)[C@@]21C)C(C)C (stereo partly drawn) [Compound S052, methyl ((4R)-4-((3S,5R,10S,12S,13R,17R)-3-((3-((4-((3-aminopropyl)amino)butyl)amino)propyl)amino)-12-hydroxy-10,13-dimethylhexadecahydro-1H-cyclopenta[a]phenanthren-17-yl)pentanoyl)-D-valinate]
Ratio (Persisters/Non-persisters) (concentration used 62.5 μM): 0.0

COC(=O)[C@H](NC(=O)CC[C@@H](C)[C@H]1CCC2C3C(C[C@H](O)[C@@]21C)[C@@]1(C)CC[C@H](NCCCN(CCCN)CCCN)C[C@H]1C[C@H]3O)C(C)C (stereo partly drawn) [Compound S060, methyl ((4R)-4-((3S,5S,7R,10S,12S,13R,17R)-3-((3-(bis(3-aminopropyl)amino)propyl)amino)-7,12-dihydroxy-10,13-dimethylhexadecahydro-1H-cyclopenta[a]phenanthren-17-yl)pentanoyl)-D-valinate]
Ratio (Persisters/Non-persisters) (concentration used 250 μM): 0.5

Reference: patent publication US20260250312A1, “ANTIBACTERIAL COMPOUNDS ELIMINATING DORMANT BACTERIAL CELLS” (UNIVERSITÉ D'AIX-MARSEILLE, priority 2022, published 2026)
